Test results reported in publication PMC7307195.
Results are given in words; binding and its absence hold for the method and conditions named. Binding seen in cells or lysates may run through a third protein. Some binding calls cover weakened binding; strength is not graded here. Tags and fused reporters may be left off the sequences shown.

By UniProt entry, the sequences of proteins in these tests, tags left out.
UniProt O75925: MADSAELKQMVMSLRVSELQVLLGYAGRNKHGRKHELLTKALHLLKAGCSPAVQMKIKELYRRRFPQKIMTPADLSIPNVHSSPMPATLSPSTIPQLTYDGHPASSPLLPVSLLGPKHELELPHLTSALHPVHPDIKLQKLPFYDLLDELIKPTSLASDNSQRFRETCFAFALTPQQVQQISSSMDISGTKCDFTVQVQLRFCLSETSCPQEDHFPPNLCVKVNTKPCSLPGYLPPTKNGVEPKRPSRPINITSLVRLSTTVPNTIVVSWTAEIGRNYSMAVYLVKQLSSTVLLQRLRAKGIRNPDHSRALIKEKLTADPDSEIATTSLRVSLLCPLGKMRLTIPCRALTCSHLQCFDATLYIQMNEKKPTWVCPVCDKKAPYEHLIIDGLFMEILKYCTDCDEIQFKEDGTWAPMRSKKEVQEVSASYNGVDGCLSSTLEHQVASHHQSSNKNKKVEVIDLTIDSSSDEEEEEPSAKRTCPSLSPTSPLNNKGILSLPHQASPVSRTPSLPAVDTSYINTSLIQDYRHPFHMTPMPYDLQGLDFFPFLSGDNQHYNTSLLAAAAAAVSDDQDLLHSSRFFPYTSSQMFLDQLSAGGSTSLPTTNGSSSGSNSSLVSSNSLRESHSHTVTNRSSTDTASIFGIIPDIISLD

T1: GFP-tagged DNA polymerase η (Pol η) (human) (UniProt Q9Y253)
T1 sequence: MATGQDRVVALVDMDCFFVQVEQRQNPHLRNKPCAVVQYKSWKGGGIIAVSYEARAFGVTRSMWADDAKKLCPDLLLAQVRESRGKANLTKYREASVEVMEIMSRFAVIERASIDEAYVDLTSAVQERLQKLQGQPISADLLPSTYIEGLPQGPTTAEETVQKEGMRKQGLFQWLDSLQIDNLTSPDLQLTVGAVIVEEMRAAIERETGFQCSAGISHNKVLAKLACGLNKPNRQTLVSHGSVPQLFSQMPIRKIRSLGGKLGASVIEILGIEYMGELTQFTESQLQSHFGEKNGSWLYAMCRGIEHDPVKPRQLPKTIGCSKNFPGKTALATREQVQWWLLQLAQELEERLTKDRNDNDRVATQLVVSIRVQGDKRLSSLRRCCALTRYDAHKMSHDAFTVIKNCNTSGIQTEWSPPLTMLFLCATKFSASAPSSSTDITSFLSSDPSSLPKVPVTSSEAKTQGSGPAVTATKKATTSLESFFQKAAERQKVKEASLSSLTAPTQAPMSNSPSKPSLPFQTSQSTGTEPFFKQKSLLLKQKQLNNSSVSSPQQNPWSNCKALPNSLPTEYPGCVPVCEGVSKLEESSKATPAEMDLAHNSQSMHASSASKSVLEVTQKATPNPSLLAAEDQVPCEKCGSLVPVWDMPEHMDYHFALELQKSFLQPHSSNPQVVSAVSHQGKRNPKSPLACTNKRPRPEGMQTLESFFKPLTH

T2: GFP-tagged DNA polymerase η (Pol η) (human), Q9Y253
T2 chain: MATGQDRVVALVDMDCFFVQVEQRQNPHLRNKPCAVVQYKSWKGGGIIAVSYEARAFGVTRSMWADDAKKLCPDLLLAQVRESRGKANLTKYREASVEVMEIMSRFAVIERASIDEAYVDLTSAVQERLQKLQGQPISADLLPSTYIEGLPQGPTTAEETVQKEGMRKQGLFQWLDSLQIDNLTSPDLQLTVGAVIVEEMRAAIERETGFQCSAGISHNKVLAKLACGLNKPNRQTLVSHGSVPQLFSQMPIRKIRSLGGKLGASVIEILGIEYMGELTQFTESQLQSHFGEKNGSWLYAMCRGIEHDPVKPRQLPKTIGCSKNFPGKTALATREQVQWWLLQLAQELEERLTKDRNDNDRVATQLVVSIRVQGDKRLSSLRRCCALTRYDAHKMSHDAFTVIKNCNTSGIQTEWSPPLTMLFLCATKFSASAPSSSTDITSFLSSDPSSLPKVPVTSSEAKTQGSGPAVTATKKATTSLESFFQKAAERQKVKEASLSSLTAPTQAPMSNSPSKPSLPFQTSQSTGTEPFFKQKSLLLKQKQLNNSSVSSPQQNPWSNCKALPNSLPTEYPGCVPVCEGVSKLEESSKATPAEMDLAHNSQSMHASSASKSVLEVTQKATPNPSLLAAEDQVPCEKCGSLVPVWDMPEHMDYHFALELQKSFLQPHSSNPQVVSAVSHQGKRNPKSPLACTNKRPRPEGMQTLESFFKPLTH


Assays:
[1] = molecular target: T1, GFP-tagged DNA polymerase η (Pol η) (human); experiment: co-IP; GFP IP (GFP-Trap agarose beads) under native conditions from lysates of U2OS/GFP-Pol η cells left untreated or exposed to UV; immunoblotting; parental U2OS cells as control
[2] = molecular target: T2, GFP-tagged DNA polymerase η (Pol η) …; experiment: as above; conditions: remark: other sources report otherwise

| binding [1] | binding [2] | Molecule |
| --- | --- | --- |
| binds | – | protein inhibitor of activated STAT 1 (PIAS1) (from UniProt O75925 1-651) |
| – | no binding | PIAS4, Q8N2W9 1-510 (protein) MAAELVEAKNMVMSFRVSDLQMLLGFVGRSKSGLKHELVTRALQLVQFDCSPELFKKIKELYETRYAKKNSEPAPQPHRPLDPLTMHSTYDRAGAVPRTPLAGPNIDYPVLYGKYLNGLGRLPAKTLKPEVRLVKLPFFNMLDELLKPTELVPQNNEKLQESPCIFALTPRQVELIRNSRELQPGVKAVQVVLRICYSDTSCPQEDQYPPNIAVKVNHSYCSVPGYYPSNKPGVEPKRPCRPINLTHLMYLSSATNRITVTWGNYGKSYSVALYLVRQLTSSELLQRLKTIGVKHPELCKALVKEKLRLDPDSEIATTGVRVSLICPLVKMRLSVPCRAETCAHLQCFDAVFYLQMNEKKPTWMCPVCDKPAPYDQLIIDGLLSKILSECEDADEIEYLVDGSWCPIRAEKERSCSPQGAILVLGPSDANGLLPAPSVNGSGALGSTGGGGPVGSMENGKPGADVVDLTLDSSSSSEDEEEEEEEEEDEDEEGPRPKRRCPFQKGLVPAC |
